The values below come from the supplement of paper PMC12595434, “Development of retinoid nuclear receptor pathway antagonists through targeting aldehyde dehydrogenase 1A3” (iScience, 2025).

Amino acid sequences for entries named in this document (tags omitted). A change or cut given only in a name is not applied to a line headed by its entry.
UniProt Q14684: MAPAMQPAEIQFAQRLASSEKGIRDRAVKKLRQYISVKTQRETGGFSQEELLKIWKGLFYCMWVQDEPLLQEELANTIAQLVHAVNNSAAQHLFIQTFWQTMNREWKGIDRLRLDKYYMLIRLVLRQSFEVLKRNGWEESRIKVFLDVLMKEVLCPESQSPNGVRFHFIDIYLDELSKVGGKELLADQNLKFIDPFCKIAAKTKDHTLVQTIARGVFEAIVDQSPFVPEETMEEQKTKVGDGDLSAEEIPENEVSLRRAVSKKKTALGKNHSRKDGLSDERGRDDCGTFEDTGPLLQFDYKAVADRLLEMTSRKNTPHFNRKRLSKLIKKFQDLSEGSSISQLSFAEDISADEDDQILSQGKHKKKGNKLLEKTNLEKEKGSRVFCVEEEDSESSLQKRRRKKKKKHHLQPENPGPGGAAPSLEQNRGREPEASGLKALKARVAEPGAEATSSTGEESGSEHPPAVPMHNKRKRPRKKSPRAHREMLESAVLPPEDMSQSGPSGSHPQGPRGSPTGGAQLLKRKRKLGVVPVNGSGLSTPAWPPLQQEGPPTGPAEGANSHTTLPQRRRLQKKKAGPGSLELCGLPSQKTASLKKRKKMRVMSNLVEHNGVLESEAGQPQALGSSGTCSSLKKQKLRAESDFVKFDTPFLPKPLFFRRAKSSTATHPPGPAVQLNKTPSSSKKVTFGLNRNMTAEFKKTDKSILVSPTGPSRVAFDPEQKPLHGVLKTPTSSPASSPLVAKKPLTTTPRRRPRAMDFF
UniProt Q14651: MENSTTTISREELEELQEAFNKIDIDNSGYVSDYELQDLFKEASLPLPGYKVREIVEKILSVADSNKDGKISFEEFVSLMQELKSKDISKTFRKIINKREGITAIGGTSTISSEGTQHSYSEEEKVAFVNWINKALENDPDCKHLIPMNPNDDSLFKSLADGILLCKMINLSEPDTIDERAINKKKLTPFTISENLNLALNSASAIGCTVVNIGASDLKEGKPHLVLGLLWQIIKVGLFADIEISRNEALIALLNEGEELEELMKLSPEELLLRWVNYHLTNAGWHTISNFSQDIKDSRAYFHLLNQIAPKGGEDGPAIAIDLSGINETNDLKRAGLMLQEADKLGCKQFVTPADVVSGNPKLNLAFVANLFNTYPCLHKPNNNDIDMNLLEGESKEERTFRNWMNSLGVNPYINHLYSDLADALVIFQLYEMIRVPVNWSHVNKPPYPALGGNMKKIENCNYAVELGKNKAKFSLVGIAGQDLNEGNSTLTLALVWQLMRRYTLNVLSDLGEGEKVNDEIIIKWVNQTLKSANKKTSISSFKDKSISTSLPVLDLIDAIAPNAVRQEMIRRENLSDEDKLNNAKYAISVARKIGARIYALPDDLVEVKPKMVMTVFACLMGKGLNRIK
UniProt Q13371: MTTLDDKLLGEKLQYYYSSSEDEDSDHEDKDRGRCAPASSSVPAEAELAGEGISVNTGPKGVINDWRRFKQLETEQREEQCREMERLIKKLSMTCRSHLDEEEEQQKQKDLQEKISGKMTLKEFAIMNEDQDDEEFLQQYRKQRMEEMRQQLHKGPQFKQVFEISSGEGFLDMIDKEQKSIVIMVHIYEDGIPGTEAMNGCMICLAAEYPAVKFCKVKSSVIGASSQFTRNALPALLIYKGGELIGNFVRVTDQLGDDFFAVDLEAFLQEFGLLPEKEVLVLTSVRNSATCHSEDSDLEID
UniProt Q13233: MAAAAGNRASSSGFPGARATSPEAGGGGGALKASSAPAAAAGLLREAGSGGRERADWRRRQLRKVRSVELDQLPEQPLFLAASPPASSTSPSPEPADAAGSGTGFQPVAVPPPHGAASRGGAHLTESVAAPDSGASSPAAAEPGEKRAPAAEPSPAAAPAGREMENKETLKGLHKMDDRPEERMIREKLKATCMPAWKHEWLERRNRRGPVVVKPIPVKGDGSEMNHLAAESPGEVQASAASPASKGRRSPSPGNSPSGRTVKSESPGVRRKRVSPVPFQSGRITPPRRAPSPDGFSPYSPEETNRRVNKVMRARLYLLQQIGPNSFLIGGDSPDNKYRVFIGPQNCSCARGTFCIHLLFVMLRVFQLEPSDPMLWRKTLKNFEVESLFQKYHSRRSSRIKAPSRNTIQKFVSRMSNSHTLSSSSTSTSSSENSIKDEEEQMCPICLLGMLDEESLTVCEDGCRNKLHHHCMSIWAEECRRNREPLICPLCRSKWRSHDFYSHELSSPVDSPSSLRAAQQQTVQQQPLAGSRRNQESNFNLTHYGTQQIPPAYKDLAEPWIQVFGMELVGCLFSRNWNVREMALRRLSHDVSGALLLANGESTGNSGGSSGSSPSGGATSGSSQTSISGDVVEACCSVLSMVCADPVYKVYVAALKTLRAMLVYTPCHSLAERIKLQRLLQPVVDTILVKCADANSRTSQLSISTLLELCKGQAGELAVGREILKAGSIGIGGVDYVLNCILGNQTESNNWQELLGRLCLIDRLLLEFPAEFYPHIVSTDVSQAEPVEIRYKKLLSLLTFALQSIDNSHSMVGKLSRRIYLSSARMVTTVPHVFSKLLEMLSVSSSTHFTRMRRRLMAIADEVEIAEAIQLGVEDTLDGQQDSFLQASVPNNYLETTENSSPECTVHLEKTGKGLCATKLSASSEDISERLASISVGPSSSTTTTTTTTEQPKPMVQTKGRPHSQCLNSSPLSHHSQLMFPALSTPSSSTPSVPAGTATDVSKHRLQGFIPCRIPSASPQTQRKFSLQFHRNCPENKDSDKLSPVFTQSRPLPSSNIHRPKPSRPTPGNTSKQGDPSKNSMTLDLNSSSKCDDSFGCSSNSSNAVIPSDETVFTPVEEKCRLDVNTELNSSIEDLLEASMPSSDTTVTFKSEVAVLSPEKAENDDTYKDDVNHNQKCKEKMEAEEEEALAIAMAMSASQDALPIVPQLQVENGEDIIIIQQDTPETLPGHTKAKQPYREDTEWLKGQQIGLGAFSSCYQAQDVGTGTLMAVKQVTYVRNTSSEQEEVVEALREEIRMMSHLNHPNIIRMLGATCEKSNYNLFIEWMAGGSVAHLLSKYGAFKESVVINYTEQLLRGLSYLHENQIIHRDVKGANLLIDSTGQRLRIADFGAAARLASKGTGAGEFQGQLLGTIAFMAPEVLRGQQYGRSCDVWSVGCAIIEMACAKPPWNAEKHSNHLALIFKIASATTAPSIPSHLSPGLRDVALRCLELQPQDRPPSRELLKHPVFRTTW
UniProt Q14019: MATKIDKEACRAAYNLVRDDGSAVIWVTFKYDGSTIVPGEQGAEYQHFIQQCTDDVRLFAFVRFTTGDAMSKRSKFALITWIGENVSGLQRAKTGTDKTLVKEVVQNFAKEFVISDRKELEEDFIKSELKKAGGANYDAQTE
UniProt Q14558: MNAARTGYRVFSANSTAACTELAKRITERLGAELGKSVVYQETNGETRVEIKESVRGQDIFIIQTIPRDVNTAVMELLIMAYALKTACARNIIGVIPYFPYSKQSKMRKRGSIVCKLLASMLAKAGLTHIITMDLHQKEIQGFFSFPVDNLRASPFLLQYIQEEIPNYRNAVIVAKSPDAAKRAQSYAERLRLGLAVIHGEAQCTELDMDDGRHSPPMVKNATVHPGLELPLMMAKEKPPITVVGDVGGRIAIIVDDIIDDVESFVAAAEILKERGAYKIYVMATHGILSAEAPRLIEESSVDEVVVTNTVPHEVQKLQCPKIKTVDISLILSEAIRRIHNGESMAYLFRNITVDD
UniProt Q13459: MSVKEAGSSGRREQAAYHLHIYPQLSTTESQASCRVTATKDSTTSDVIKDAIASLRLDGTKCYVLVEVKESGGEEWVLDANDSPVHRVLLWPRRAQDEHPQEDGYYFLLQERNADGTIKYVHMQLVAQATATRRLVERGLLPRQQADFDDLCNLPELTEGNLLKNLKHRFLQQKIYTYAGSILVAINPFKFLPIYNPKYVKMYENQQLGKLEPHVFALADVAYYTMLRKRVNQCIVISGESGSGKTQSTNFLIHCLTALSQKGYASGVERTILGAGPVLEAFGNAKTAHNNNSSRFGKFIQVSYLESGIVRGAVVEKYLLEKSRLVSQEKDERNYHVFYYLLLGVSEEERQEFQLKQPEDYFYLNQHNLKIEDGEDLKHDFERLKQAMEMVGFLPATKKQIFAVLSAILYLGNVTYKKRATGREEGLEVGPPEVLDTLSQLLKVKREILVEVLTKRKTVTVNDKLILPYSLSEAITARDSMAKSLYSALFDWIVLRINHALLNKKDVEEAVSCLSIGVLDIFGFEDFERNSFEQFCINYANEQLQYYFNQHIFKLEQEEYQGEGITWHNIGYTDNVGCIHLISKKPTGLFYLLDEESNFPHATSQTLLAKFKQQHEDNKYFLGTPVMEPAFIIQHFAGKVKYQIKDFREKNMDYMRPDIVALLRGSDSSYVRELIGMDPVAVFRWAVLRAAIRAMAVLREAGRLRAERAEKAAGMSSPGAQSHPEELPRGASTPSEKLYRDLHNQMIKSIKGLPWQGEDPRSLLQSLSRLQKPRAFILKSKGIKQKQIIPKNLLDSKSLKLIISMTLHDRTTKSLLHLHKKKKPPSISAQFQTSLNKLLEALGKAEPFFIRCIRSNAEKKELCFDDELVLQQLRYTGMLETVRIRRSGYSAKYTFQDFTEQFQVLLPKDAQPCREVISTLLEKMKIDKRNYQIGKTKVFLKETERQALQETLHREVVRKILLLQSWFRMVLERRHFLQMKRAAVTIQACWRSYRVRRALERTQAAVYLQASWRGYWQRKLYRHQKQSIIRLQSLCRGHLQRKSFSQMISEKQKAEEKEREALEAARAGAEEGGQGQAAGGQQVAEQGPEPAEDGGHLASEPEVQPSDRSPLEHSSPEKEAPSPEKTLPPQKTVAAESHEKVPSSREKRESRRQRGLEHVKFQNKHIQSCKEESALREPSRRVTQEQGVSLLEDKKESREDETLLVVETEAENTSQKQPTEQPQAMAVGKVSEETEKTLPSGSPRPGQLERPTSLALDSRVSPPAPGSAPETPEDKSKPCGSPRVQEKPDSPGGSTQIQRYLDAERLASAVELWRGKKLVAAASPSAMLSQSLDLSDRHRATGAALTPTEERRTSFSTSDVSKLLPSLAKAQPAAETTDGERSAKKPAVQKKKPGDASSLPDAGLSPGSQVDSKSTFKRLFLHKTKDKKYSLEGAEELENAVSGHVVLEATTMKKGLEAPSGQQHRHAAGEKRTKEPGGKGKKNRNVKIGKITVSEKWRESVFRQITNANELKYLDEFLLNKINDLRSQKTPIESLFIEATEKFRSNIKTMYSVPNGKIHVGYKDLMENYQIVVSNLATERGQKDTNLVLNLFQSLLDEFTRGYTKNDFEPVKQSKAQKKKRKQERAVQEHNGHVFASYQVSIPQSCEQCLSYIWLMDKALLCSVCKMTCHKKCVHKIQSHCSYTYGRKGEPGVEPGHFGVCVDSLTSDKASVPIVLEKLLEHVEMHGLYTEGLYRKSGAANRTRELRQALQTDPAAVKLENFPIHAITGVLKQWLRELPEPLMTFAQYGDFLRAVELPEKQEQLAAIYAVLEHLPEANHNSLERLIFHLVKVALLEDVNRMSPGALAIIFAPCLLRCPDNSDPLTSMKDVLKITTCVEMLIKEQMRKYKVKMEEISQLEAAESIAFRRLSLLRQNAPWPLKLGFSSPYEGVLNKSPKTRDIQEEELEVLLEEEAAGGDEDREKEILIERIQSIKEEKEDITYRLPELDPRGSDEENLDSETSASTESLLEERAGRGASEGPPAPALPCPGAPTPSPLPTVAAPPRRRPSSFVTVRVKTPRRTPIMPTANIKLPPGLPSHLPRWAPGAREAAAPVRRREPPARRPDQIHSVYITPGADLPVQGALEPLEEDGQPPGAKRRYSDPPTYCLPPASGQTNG
UniProt Q13630: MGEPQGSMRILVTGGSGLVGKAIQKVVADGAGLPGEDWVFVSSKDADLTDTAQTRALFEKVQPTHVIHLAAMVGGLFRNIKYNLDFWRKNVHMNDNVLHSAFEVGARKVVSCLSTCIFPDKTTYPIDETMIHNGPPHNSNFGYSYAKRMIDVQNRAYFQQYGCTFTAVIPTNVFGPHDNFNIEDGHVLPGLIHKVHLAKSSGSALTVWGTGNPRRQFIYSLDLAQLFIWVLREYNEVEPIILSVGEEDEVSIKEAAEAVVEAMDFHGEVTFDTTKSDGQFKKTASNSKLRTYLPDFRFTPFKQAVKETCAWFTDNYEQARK
UniProt Q13216, whole entry: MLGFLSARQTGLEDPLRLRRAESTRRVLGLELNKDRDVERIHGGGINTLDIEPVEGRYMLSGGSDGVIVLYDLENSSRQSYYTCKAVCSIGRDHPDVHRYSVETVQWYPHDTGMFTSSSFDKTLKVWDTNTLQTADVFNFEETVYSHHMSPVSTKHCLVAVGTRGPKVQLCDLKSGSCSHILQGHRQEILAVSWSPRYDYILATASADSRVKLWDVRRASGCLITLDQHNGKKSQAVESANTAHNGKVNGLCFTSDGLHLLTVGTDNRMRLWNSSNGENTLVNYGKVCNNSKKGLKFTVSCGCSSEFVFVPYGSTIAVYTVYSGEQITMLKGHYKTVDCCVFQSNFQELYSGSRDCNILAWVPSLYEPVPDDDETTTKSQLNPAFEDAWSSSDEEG

Compound in this assay: CCc1cnccc1C(=O)Nc1cc2c(cc1F)NC(=O)CC2
The assay can be described thus: melting temperature shift (DMSO Tm minus MBE1-treated Tm) in cellular thermal proteome profiling; higher = less thermal stabilization by MBE1 (negative = stabilized by MBE1). To be noted: A375.

The list shows a part of the results. The data scatter; read single values as rough.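 Tm was set to 64 °C where no melting was found, and many curves are irregular.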

Regarding NCAPH (UniProt Q15003), the melting temperature shift is, setting by setting: (MBE1 concentration: 100 nM) -0.306 °C; (MBE1 concentration: 1 uM) -0.456 °C.

UniProt Q14667: the melting temperature shift (MBE1 concentration: 100 nM) is -0.366 °C and the melting temperature shift (MBE1 concentration: 1 uM) came out at 0.318 °C.

Take MDC1 (UniProt Q14676): the melting temperature shift by setting is: (MBE1 concentration: 100 nM) -0.238 °C; (MBE1 concentration: 1 uM) 0.653 °C.

Take RRP1B (UniProt Q14684): the melting temperature shift by setting is: (MBE1 concentration: 100 nM) -0.32 °C; (MBE1 concentration: 1 uM) -0.275 °C.

For GNA13 (UniProt Q14344), the melting temperature shift by setting is: (MBE1 concentration: 100 nM) -0.999 °C; (MBE1 concentration: 1 uM) 0.0268 °C.

As to DCTN1 (UniProt Q14203), the melting temperature shift is 0.304 °C (MBE1 concentration: 100 nM) and 0.173 °C (MBE1 concentration: 1 uM).

Regarding GSE1 (UniProt Q14687), the melting temperature shift is -0.708 °C (MBE1 concentration: 100 nM) and -0.0733 °C (MBE1 concentration: 1 uM).

Consider UBE4A (UniProt Q14139), for which the melting temperature shift is -0.809 °C (MBE1 concentration: 100 nM) and -0.889 °C (MBE1 concentration: 1 uM).

In the case of UniProt Q13469, the melting temperature shift is -1.35 °C (MBE1 concentration: 100 nM) and -0.661 °C (MBE1 concentration: 1 uM).

Take PLS1 (UniProt Q14651): the melting temperature shift was -0.0366 °C (MBE1 concentration: 100 nM) and 0.403 °C (MBE1 concentration: 1 uM).

For KPNB1 (UniProt Q14974), the melting temperature shift (MBE1 concentration: 100 nM) came to 0.745 °C and the melting temperature shift (MBE1 concentration: 1 uM) was -0.25 °C.

As for ZMYM3 (UniProt Q14202), the melting temperature shift is, setting by setting: (MBE1 concentration: 100 nM) -2.09 °C; (MBE1 concentration: 1 uM) -0.801 °C.

UniProt Q13888: the melting temperature shift was -1.12 °C (MBE1 concentration: 100 nM) and -0.0047 °C (MBE1 concentration: 1 uM).

Consider GTF2H3 (UniProt Q13889), for which the melting temperature shift (MBE1 concentration: 100 nM) is -1.66 °C and the melting temperature shift (MBE1 concentration: 1 uM) is -0.102 °C.

In the case of PTGR1 (UniProt Q14914), the melting temperature shift is, setting by setting: (MBE1 concentration: 100 nM) 1.26 °C; (MBE1 concentration: 1 uM) 0.397 °C.

As for PDCL (UniProt Q13371), the melting temperature shift is, setting by setting: (MBE1 concentration: 100 nM) -0.0855 °C; (MBE1 concentration: 1 uM) -0.855 °C.

Consider UniProt Q13325, for which the melting temperature shift is -1.05 °C (MBE1 concentration: 100 nM) and -0.268 °C (MBE1 concentration: 1 uM).

TARDBP (UniProt Q13148): the melting temperature shift is -0.0513 °C (MBE1 concentration: 100 nM) and -0.429 °C (MBE1 concentration: 1 uM).

On to UniProt Q13905, for which the melting temperature shift is, setting by setting: (MBE1 concentration: 100 nM) 0.11 °C; (MBE1 concentration: 1 uM) 0.395 °C.

Consider STIM1 (UniProt Q13586), for which the melting temperature shift by setting is: (MBE1 concentration: 100 nM) 0.659 °C; (MBE1 concentration: 1 uM) 0.849 °C.

Turning to FLOT2 (UniProt Q14254), the melting temperature shift runs as follows: (MBE1 concentration: 100 nM) -2.37 °C; (MBE1 concentration: 1 uM) -0.651 °C.

Consider MAP3K1 (UniProt Q13233), for which the melting temperature shift is -3.14 °C (MBE1 concentration: 100 nM) and 0.415 °C (MBE1 concentration: 1 uM).

Regarding KEAP1 (UniProt Q14145), the melting temperature shift (MBE1 concentration: 100 nM) was 1.15 °C and the melting temperature shift (MBE1 concentration: 1 uM) is -0.11 °C.

Turning to TMED1 (UniProt Q13445), the melting temperature shift is -1.34 °C (MBE1 concentration: 100 nM) and -2.45 °C (MBE1 concentration: 1 uM).

For UniProt Q13164, the melting temperature shift reads like this: (MBE1 concentration: 100 nM) -0.00941 °C; (MBE1 concentration: 1 uM) 0.414 °C.

Take CHAF1A (UniProt Q13111): the melting temperature shift runs as follows: (MBE1 concentration: 100 nM) -0.423 °C; (MBE1 concentration: 1 uM) -0.308 °C.

For the target R3HDM1 (UniProt Q15032), the melting temperature shift runs as follows: (MBE1 concentration: 100 nM) -0.342 °C; (MBE1 concentration: 1 uM) -0.983 °C.

With COTL1 (UniProt Q14019), the melting temperature shift came to 0.107 °C (MBE1 concentration: 100 nM) and 0.483 °C (MBE1 concentration: 1 uM).

GPS1 (UniProt Q13098): the melting temperature shift is, setting by setting: (MBE1 concentration: 100 nM) -1.04 °C; (MBE1 concentration: 1 uM) 0.513 °C.

Turning to TUBB3 (UniProt Q13509), the melting temperature shift runs as follows: (MBE1 concentration: 100 nM) -0.967 °C; (MBE1 concentration: 1 uM) 0.188 °C.

For PRPSAP1 (UniProt Q14558), the melting temperature shift reads like this: (MBE1 concentration: 100 nM) -0.241 °C; (MBE1 concentration: 1 uM) 1.16 °C.

On to MYO9B (UniProt Q13459), for which the melting temperature shift (MBE1 concentration: 100 nM) amounted to 0.231 °C and the melting temperature shift (MBE1 concentration: 1 uM) is -0.00941 °C.

Take MTMR3 (UniProt Q13615): the melting temperature shift is, setting by setting: (MBE1 concentration: 100 nM) 0.25 °C; (MBE1 concentration: 1 uM) 0.989 °C.

Regarding GIT2 (UniProt Q14161), the melting temperature shift is -0.472 °C (MBE1 concentration: 100 nM) and 0.24 °C (MBE1 concentration: 1 uM).

ATM (UniProt Q13315): the melting temperature shift (MBE1 concentration: 100 nM) is -0.465 °C and the melting temperature shift (MBE1 concentration: 1 uM) turned out to be 0.409 °C.

Take TSTA3 (UniProt Q13630): the melting temperature shift (MBE1 concentration: 100 nM) was -1.02 °C and the melting temperature shift (MBE1 concentration: 1 uM) is -0.56 °C.

As to EIF3A (UniProt Q14152), the melting temperature shift (MBE1 concentration: 100 nM) is -0.268 °C and the melting temperature shift (MBE1 concentration: 1 uM) was -0.311 °C.

UniProt Q14142: the melting temperature shift was -1.45 °C (MBE1 concentration: 100 nM) and -1.3 °C (MBE1 concentration: 1 uM).

In the case of SRSF6 (UniProt Q13247), the melting temperature shift (MBE1 concentration: 100 nM) is -0.513 °C and the melting temperature shift (MBE1 concentration: 1 uM) was 0.208 °C.

For the target BECN1 (UniProt Q14457), the melting temperature shift runs as follows: (MBE1 concentration: 100 nM) -0.763 °C; (MBE1 concentration: 1 uM) 0.14 °C.

In the case of ITPR3 (UniProt Q14573), the melting temperature shift (MBE1 concentration: 100 nM) was -0.607 °C and the melting temperature shift (MBE1 concentration: 1 uM) was -0.395 °C.

Turning to UniProt Q15019, the melting temperature shift by setting is: (MBE1 concentration: 100 nM) -1.16 °C; (MBE1 concentration: 1 uM) 0.214 °C.

For the target USP10 (UniProt Q14694), the melting temperature shift (MBE1 concentration: 100 nM) is -0.897 °C and the melting temperature shift (MBE1 concentration: 1 uM) was -0.352 °C.

Regarding HNRNPD (UniProt Q14103), the melting temperature shift runs as follows: (MBE1 concentration: 100 nM) -1.58 °C; (MBE1 concentration: 1 uM) -0.453 °C.

With PSME4 (UniProt Q14997), the melting temperature shift is -0.484 °C (MBE1 concentration: 100 nM) and 0.989 °C (MBE1 concentration: 1 uM).

Turning to SLMAP (UniProt Q14BN4), the melting temperature shift was 0.116 °C (MBE1 concentration: 100 nM) and -0.0366 °C (MBE1 concentration: 1 uM).

Consider PPP2R5C (UniProt Q13362), for which the melting temperature shift reads like this: (MBE1 concentration: 100 nM) 1.96 °C; (MBE1 concentration: 1 uM) 1.45 °C.

As for UniProt Q13488, the melting temperature shift was -1.47 °C (MBE1 concentration: 100 nM) and -1.17 °C (MBE1 concentration: 1 uM).

As to UniProt Q14699, the melting temperature shift is -0.168 °C (MBE1 concentration: 100 nM) and 0.0939 °C (MBE1 concentration: 1 uM).

With SAFB2 (UniProt Q14151), the melting temperature shift (MBE1 concentration: 100 nM) is -0.103 °C and the melting temperature shift (MBE1 concentration: 1 uM) was -0.148 °C.

In the case of UniProt Q14195, the melting temperature shift is -1.99 °C (MBE1 concentration: 100 nM) and -0.0488 °C (MBE1 concentration: 1 uM).

Take UniProt Q13216: the melting temperature shift (MBE1 concentration: 100 nM) worked out at 1.64 °C and the melting temperature shift (MBE1 concentration: 1 uM) was found to be 2.18 °C.

As for UniProt Q14119, the melting temperature shift (MBE1 concentration: 100 nM) was -1.97 °C and the melting temperature shift (MBE1 concentration: 1 uM) was 0.153 °C.

As for TUBB2A (UniProt Q13885), the melting temperature shift is -0.598 °C (MBE1 concentration: 100 nM) and 1.08 °C (MBE1 concentration: 1 uM).

For the target FLNC (UniProt Q14315), the melting temperature shift runs as follows: (MBE1 concentration: 100 nM) -0.287 °C; (MBE1 concentration: 1 uM) -0.208 °C.

Turning to MEF2D (UniProt Q14814), the melting temperature shift (MBE1 concentration: 100 nM) turned out to be 0.0134 °C and the melting temperature shift (MBE1 concentration: 1 uM) is 0.174 °C.

Turning to NAA25 (UniProt Q14CX7), the melting temperature shift is -0.262 °C (MBE1 concentration: 100 nM) and 0.318 °C (MBE1 concentration: 1 uM).

As for VGLL4 (UniProt Q14135), the melting temperature shift is -0.14 °C (MBE1 concentration: 100 nM) and 2.26 °C (MBE1 concentration: 1 uM).

Turning to UniProt Q13308, the melting temperature shift (MBE1 concentration: 100 nM) was -0.952 °C and the melting temperature shift (MBE1 concentration: 1 uM) was determined as 0.735 °C.
